For part of these data: At least one result comes from cells or an extract, where the contact may be indirect. For part of these data: A negative result means that nothing was seen under these conditions. For part of these data: Construct, isoform or probe ends are uncertain for at least one entry. For part of these data: The comparison behind a weaker result is the experiment's own reference, which may not be listed here. For part of these data: At least one verdict rests on a figure or table, not on a statement of the authors.
Key:
[1] = tested on: POT1 full-length + TPP1PBM (SAXS construct); experiment: SAXS of ternary complex; conditions: recombinant protein; single-stranded DNA
[2] = target: HA-POT1 Q623H (Homo sapiens) (UniProt Q9NUX5); experiment: pull-down; conditions: Flag-TPP1 co-expressed; Pull-down: 50 mM Hepes pH 7.3, 150 mM NaCl, 2 mM MgCl2, 5 mM EGTA, 0.5% Triton X-100, 10% glycerol, protease inhibitors, overnight 4 °C; protein in a lysate after overexpression; residues 1-634; protein details: HA; single-stranded DNA
[3] = target: HA-POT1 E572K (Homo sapiens) (UniProt Q9NUX5); experiment: pull-down; conditions: Flag-TPP1 co-expressed; Pull-down: 50 mM Hepes pH 7.3, 150 mM NaCl, 2 mM MgCl2, 5 mM EGTA, 0.5% Triton X-100, 10% glycerol, protease inhibitors, overnight 4 °C; protein in a lysate after overexpression; residues 1-634; protein details: HA; single-stranded DNA
[4] = target: HA-POT1 F62A (Homo sapiens) (UniProt Q9NUX5); experiment: pull-down; conditions: Flag-TPP1 co-expressed; Pull-down: 50 mM Hepes pH 7.3, 150 mM NaCl, 2 mM MgCl2, 5 mM EGTA, 0.5% Triton X-100, 10% glycerol, protease inhibitors, overnight 4 °C; protein in a lysate after overexpression; residues 1-634; protein details: HA; single-stranded DNA
[5] = target: HA-POT1 WT (Homo sapiens) (UniProt Q9NUX5); experiment: pull-down; conditions: Pull-down: 50 mM Hepes pH 7.3, 150 mM NaCl, 2 mM MgCl2, 5 mM EGTA, 0.5% Triton X-100, 10% glycerol, protease inhibitors, overnight 4 °C, protein in a lysate after overexpression, residues 1-634, protein details: HA, single-stranded DNA
[6] = target: HA-POT1 A364E (Homo sapiens) (UniProt Q9NUX5); experiment: pull-down; conditions: Flag-TPP1 co-expressed, reduced POT1 input; Pull-down: 50 mM Hepes pH 7.3, 150 mM NaCl, 2 mM MgCl2, 5 mM EGTA, 0.5% Triton X-100, 10% glycerol, protease inhibitors, overnight 4 °C; protein in a lysate after overexpression; residues 1-634; protein details: HA; single-stranded DNA
[7] = target: HA-POT1 M587T (Homo sapiens) (UniProt Q9NUX5); experiment: pull-down; conditions: Flag-TPP1 co-expressed; Pull-down: 50 mM Hepes pH 7.3, 150 mM NaCl, 2 mM MgCl2, 5 mM EGTA, 0.5% Triton X-100, 10% glycerol, protease inhibitors, overnight 4 °C; protein in a lysate after overexpression; residues 1-634; protein details: HA; single-stranded DNA
[8] = target: HA-POT1 P371T (Homo sapiens) (UniProt Q9NUX5); experiment: pull-down; conditions: Flag-TPP1 co-expressed, reduced POT1 input; Pull-down: 50 mM Hepes pH 7.3, 150 mM NaCl, 2 mM MgCl2, 5 mM EGTA, 0.5% Triton X-100, 10% glycerol, protease inhibitors, overnight 4 °C; protein in a lysate after overexpression; residues 1-634; protein details: HA; single-stranded DNA

Sequence	binding result [1]	binding result [2]	binding result [3]	binding result [4]	binding result ([5]; Flag-TPP1 co-expressed)	binding result ([5]; Flag-TPP1ΔRD (del244-337, does not bind POT1) co-expressed instead of WT TPP1, reduced POT1 stability)	binding result [6]	binding result [7]	binding result [8]
TTAGGGTTAG [T10]	binds								
TTAGGGTTAGGGTTAGGGTTAGGGTTAGGGTTAGGG [Tel-G (TTAGGG)6]		binds	binds	no binding	binds	binds more weakly	binds	binds	binds
